Assay results published in PubChem BioAssay AID493014 (National Center for Advancing Translational Sciences (NCATS), 2011).
Some of the results follow. Further columns of the screen follow, without active or inactive calls. Compounds called inactive in the main read-out are mostly missing here. Potencies come from curve fits of mixed quality, noted in brackets.

Assay: qHTS Assay to Find Inhibitors of Chronic Active B-Cell Receptor Signaling
Settings: ABC-DLBCL IkBa-CBG/CBR reporter, luminescence ratio (green luciferase fused to IkBa over red control in TMD8 lymphoma cells), 4 h
Summary of the method: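 TMD8 human ABC-DLBCL cells with doxycycline-inducible IκBα–green luciferase fusion and unfused red luciferase, in 0.5% FBS medium; compounds up to 46 uM, 4 h at 37C. Green/red luminescence ratio, filter-overlap corrected, fitted to concentration-response curves.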

[1] = measured here: CBR red luminescence, cell number
[2] = measured here: IkBa-CBG green luminescence

Compound	AC50 [1]	AC50 [2]
COCc1ccc(CN2CCCC(CCC(=O)NCc3cccc(OC)c3)C2)o1 (stereo not drawn)	3.55 µM [rising, single point]	
CCOc1ncccc1C(=O)Nc1ccc2c(c1)OCO2	17.8 µM [falling, single point]	
COc1ccc(C)cc1NC(=O)c1ccc(NS(=O)(=O)c2cccc3cccnc23)cc1	11.2 µM [rising, partial curve]	
Clc1ccc(-c2nnc(C34CC5CC(CC(C5)C3)C4)o2)cn1	1.64 µM [falling, partial curve]	
O=C(CSc1nccc2ccccc12)N1CCN(c2ccccn2)CC1	29.1 µM [falling, single point]	
CCCNC(=O)C(=O)Nc1ccc(N(C)C)cc1	10.3 µM [falling, partial curve, poor fit]	
COc1ccc(C(=O)Nc2cc(Cl)ccc2C(=O)O)cc1	11.2 µM [falling, partial curve]	
CN(C(=O)CCl)C1CCCc2ccccc21 (stereo not drawn)	11.2 µM [falling, partial curve, poor fit]	
Cc1ccccc1NC(=O)Nc1ccccc1Br	1.12 µM [falling, full curve]	
CCOC(=O)C(C)(C)N(Cc1ccc(C)cc1)S(=O)(=O)c1ccc(Cl)c([N+](=O)[O-])c1	20.6 µM [falling, single point]	
O=C(Cc1ccc(Br)cc1)N1CCN(c2ccccc2)CC1	29.1 µM [rising, single point]	
c1ccc(-c2csc(N3CCc4ccccc4C3)n2)cc1	0.0891 µM [rising, full curve, poor fit]	
Oc1ccc(N=Nc2c(O)ccc3ccccc23)cc1	29.1 µM [falling, single point]	
O=[N+]([O-])c1ccc(-c2ccc(/C=N/c3c(-c4ccco4)nc4ccccn34)o2)cc1	14.1 µM [rising, partial curve, poor fit]	
CCOc1ccc(OCC)c(NC(=O)C2CCN(S(=O)(=O)c3cnc[nH]3)CC2)c1	3.66 µM [rising, single point]	
CCN(CC)C(=O)CSc1nc(-c2ccccc2)cc(=O)[nH]1	12.6 µM [falling, single point]	
CCC(C)(C)n1nnnc1C(c1cc2cc(C)ccc2[nH]c1=O)N1CCCc2ccccc21 (stereo not drawn)	5.17 µM [falling, full curve]	
O=C(COC(=O)c1ccccc1O)Nc1cccnc1Cl	4.11 µM [falling, full curve]	
CCOc1ccccc1NC(=O)C(Sc1nnc2ccccn12)c1ccccc1 (stereo not drawn)	9.2 µM [falling, partial curve, poor fit]	
O=C(CSc1ccccn1)Nc1nc2ccccc2s1	16.4 µM [falling, single point]	
CCN(CC(=O)Nc1ccc(OC)cc1)C(=O)CN1C(=O)NC(C)(c2ccc3ccccc3c2)C1=O (stereo not drawn)	10 µM [falling, partial curve, poor fit]	

In the list so far, these contain bromine:
Compound	AC50 [1]	AC50 [2]
Cc1ccccc1NC(=O)Nc1ccccc1Br	1.12 µM [falling, full curve]	
O=C(Cc1ccc(Br)cc1)N1CCN(c2ccccc2)CC1	29.1 µM [rising, single point]	

Going on with the list.

Compound	AC50 [1]	AC50 [2]
CCCCC(=O)Nc1ccc(C(=O)Nc2ccc(S(=O)(=O)Nc3ccc(C)cc3)cc2)cc1	29.1 µM [rising, single point]	
CN1C(=O)C(Cl)(Cl)C(=O)c2ccccc21	23.1 µM [falling, partial curve]	
CCOC(=O)Nc1ccc2c(c1)N(C(=O)CCN(C)C)c1ccccc1S2	20 µM [falling, partial curve]	
CCCSc1nc(C)c(C(C)=O)cc1C#N		2.59 µM [falling, full curve, poor fit]
O=C(NCc1ccco1)c1nc2c(nnn2Cc2ccccc2Cl)c(=O)[nH]1	5.8 µM [falling, full curve, poor fit]	23.1 µM [rising, single point]
Clc1ccc(CCNc2nc3ccccc3s2)cc1	2.82 µM [rising, partial curve, poor fit]	
Cn1c(=O)c2c(ncn2CCOc2cccc(Br)c2)n(C)c1=O	25.1 µM [falling, single point]	
Clc1ccc(CNCc2cccs2)cc1Cl	13 µM [rising, partial curve, poor fit]	
O=C(NCc1ccccn1)c1ccc(NS(=O)(=O)c2cccc(Cl)c2)cc1	11.2 µM [falling, partial curve, poor fit]	
CCC(=O)c1ccc(OCC(=O)NCC2COc3ccccc3O2)cc1 (stereo not drawn)	20.6 µM [rising, single point]	
O=C(CSC1=Nc2ccccc2C2=NC(c3ccccc3)C(=O)N12)NC1CCCCC1 (stereo not drawn)	6.51 µM [falling, single point]	
COc1cccc(NC(=O)N2CCN3CCCCC3C2)c1 (stereo not drawn)	8.91 µM [falling, partial curve]	
C=CCSc1nc2ccccc2n1Cc1nnc(-c2cccs2)o1	35.5 µM [falling, partial curve, poor fit]	
CCC1CCCCN1C(=O)CSc1nnc(CNC(=O)COc2ccc(Cl)cc2)o1 (stereo not drawn)	29.1 µM [rising, single point]	
Cc1ccc2oc(=O)c(-c3ccc(O)cc3)c(C)c2c1	0.103 µM [falling, full curve, poor fit]	
CC(C)CN1C(=O)C(=O)N(CC(=O)N(C)CC(=O)Nc2ccc(Cl)c(C(F)(F)F)c2)C1=O	4.11 µM [rising, full curve, poor fit]	
C=CCn1nc([N+](=O)[O-])nc1Sc1cccc2cccnc12	29.1 µM [falling, single point]	
CCCCc1nc(NCCNC(=O)c2ccccc2)c(C#N)c2c1CSC(C)(C)C2	20.6 µM [falling, single point]	
CC(C)(C)n1nc2c(c1NC(=O)c1cc3ccccc3o1)CS(=O)(=O)C2	6.31 µM [rising, full curve]	
COCc1cc(C)n(CC(=O)N/N=C/c2ccc(-c3ccc(Cl)c(C(=O)O)c3)o2)c(=O)c1C#N	23.1 µM [falling, single point]	
COC(=O)c1cc(O)cc(OC)c1C(=O)c1c(O)cc(C)cc1O	12.6 µM [falling, partial curve, poor fit]	

Three structures out of the list, ordered by heavy-atom count, low to high:
Compound	AC50 [1]	AC50 [2]
Clc1ccc(CNCc2cccs2)cc1Cl	13 µM [rising, partial curve, poor fit]	
Cn1c(=O)c2c(ncn2CCOc2cccc(Br)c2)n(C)c1=O	25.1 µM [falling, single point]	
O=C(NCc1ccccn1)c1ccc(NS(=O)(=O)c2cccc(Cl)c2)cc1	11.2 µM [falling, partial curve, poor fit]	
